In patent publication US7812177B2, “Potassium channel opener having benzofuroindole skeleton” (Anygen Co., Ltd., priority 2005, dated 2010):
At least one compound was matched to its structure with a doubt left. Some entries share one result that the patent states for a list of compounds.

The chains behind the UniProt entries cited, without tags or fusion partners. Where a name states a change or a piece, a line headed by the entry shows the natural chain unless it says otherwise.
UniProt Q62976: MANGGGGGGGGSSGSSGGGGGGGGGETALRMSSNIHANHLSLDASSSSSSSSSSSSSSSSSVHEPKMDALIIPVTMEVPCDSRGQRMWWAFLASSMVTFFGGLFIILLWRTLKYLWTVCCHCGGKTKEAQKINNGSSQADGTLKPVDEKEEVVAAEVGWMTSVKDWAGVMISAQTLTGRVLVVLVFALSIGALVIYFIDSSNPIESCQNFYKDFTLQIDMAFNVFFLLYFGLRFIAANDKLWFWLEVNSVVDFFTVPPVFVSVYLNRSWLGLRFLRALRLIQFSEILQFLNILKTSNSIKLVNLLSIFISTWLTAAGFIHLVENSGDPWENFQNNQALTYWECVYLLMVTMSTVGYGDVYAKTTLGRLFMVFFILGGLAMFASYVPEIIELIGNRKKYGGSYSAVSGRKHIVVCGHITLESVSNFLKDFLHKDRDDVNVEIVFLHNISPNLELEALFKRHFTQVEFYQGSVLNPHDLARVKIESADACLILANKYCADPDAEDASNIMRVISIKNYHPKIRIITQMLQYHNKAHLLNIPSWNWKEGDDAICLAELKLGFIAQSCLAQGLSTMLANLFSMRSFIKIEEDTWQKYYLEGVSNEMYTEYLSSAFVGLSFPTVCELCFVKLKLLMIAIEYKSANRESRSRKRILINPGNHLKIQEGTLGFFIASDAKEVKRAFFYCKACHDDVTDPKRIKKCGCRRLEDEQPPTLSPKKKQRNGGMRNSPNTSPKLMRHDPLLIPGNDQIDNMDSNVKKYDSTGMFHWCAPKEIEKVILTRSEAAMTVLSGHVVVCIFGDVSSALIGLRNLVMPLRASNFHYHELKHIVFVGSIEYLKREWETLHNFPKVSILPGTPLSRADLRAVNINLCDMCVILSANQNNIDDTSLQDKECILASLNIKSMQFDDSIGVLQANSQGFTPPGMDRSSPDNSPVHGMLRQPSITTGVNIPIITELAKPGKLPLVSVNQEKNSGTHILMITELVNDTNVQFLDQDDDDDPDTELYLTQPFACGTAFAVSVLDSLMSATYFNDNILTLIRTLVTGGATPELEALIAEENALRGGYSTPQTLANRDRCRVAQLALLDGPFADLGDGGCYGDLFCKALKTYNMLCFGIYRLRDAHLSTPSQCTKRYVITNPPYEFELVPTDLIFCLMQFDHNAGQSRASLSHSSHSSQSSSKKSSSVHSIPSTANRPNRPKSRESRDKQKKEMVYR

How the values were obtained:
Assay type in all cases: cell-based
[1] = target: T1, cloned α subunit of rat BKCa channels, rSlo (Rattus norvegicus, UniProt Q62976); test: Excised outside-out voltage clamp recording, fold increase of BKCa channel currents by extracellularly applied compounds; conditions: extracellular treatment at 20 μM; outside-out patch, Xenopus laevis oocytes expressing rSlo
T1 construct: expressed in transfected cells; host or cells: Xenopus laevis oocytes
Description: FIG. 3 illustrates relative fold-increase of BKCa channel activity by extracellularly applied benzofuroindole analogues of present invention. Bar graphs represent fold increases in BKCa channel currents evoked by extracellular treatment of various compounds at 20 μM.
The biological activity of compounds 7˜23 to open BKCa channels and increase the BKCa channel currents was determined by using excised outside-out voltage clamp recording from Xenopus laevis oocytes expressing cloned α subunit of rat BKCa channels, rSlo.

[2] = target: T2, rSlo channel (Rattus norvegicus, UniProt Q62976); test: Concentration-dependence of channel opening, compound applied to the extracellular side of membrane patches
T2 construct: expressed in transfected cells; host or cells: Xenopus laevis oocytes
Text: FIG. 6 illustrates concentration-dependence activity of compound 8 on BKCa channel. FIG. 6A illustrates concentration-dependence activity of rSlo channel. FIG. 6B illustrates concentration-dependence activity of rSlo channel combined with human β1. FIG. 6C illustrates concentration-dependence activity of rSlo channel combined with rat β4 subunit.
We then measured the concentration-dependence of compound 8 of the present invention. […] Although we were not able to obtain a concentration of compound 8 higher than 300 μM because of its solubility in water, we noticed that compound 8-induced current increases reached plateau levels at around 100 μM. […] We also measured the effects of compound 8 using inside-out patch configuration to determine whether this compound also affects channel activity from the intracellular side. The intracellular Ca^2+ concentration was fixed at 2 μM to activate rSlo channels, and different concentrations of compound 8 were added to the intracellular side of the membrane.

[3] = target: T2, rSlo channel; test: Inside-out patch configuration, compound added to the intracellular side; conditions: intracellular Ca2+ 2 μM, compared with extracellular side
[4] = target: T3, rSlo/human β1 (Rattus norvegicus, UniProt Q62976); test: Channel currents of rSlo coexpressed with human β1 subunit in Xenopus laevis oocytes; conditions: extracellular compound, different concentrations
T3 construct: expressed in transfected cells; host or cells: Xenopus laevis oocytes

[5] = target: T4, rSlo/rat β4 (Rattus norvegicus, UniProt Q62976); test: Channel currents of rSlo coexpressed with rat β4 subunit in Xenopus laevis oocytes; conditions: extracellular compound, different concentrations
T4 construct: expressed in transfected cells; host or cells: Xenopus laevis oocytes

SMILES	fold increase of BKCa channel currents [1]	further results
O=C(O)c1cccc2c1[nH]c1c3ccc(Cl)cc3oc21 [Compound 17, 7-Chloro-10H-benzo[4,5]furo[3,2-b]indole-1-carboxylic acid]	more than 3 fold	–
O=C(O)c1cccc2c1[nH]c1c3cc(Br)ccc3oc21 [Compound 7, 8-Bromo-10H-benzo[4,5]furo[3,2-b]indole-1-carboxylic acid]	more than 3 fold	–
Fc1cccc2[nH]c3c4ccc(C(F)(F)F)cc4oc3c12 [Compound 20, 4-Fluoro-7-trifluoromethyl-10H-benzo[4,5]furo[3,2-b]indole]	activity near to the basal level	–
Fc1ccc2c(c1)[nH]c1c3ccc(C(F)(F)F)cc3oc21 [Compound 21, 2-Fluoro-7-trifluoromethyl-10H-benzo[4,5]furo[3,2-b]indole]	activity near to the basal level	–
O=C(O)c1cccc2c1[nH]c1c3ccc(C(F)(F)F)cc3oc21 [Compound 8, 7-Trifluoromethyl-10H-benzo[4,5]furo[3,2-b]indole-1-carboxylic acid]	more than 3 fold	concentration at which current increases reached plateau levels ([2]; extracellular application): around 100 μM; activation rate and level of steady-state current ([2]; increasing extracellular concentrations): increased in a concentration-dependent manner; fold increase of rSlo currents, intracellular application [3]: much smaller than that obtained from extracellular side; activity of rSlo/human β1 [4]: increased by micromolar concentration of the compound in a concentration-dependence manner; activity of rSlo/rat β4 [5]: increased by micromolar concentration of the compound in a concentration-dependence manner
